From paper PMC10163288 come the findings set out here.

The chains are these.
B1: il2ra_site1_1z92_normal_mot_73a3237f21306322153cb43486d2ff88_0001_1_af2_000000006_0001_34_49_H_._66959ead3e6c57cb3ef8243f3eb758e0_0001_1_0001_0000400058_0000001 … (protein)
chain: SELEQELLDAVRSKDEEALRELIQLLLRDTKDPELARQLLRILVKRLGLPEEVLERLLKLLDELA
B2: il2ra_site1_3nfp_normal_mot_HHH_b2_00857_af2_000000076_0001_1_16_H_._HHH_b1_07967_0001_0000100005_0000001_0_1_af2pred_0001_af2pred (protein)
chain: SSSSDVEEELKELLEELEELAKRRDIRRFNEVAKEIAKLVKENDDEEAWRLLRRILREAAGSSSS
B3: il2ra_site2_2erj_sap_15_mot_HHH_b2_06646_af2_000000081_0001_19_36_H_._HHH_b2_00405_0001_0000200009_0000001_0_0001 (protein)
chain: SSSSDDEVNRRILELARQALRVDKEEVEEIIEEMKELAEENNDEDAKAAAETLERYLRRLSSSSS
B4: il2ra_site2_3nfp_normal_mot_HHH_b1_00660_af2_000000199_0001_40_57_H_._HHH_b1_02274_0001_0000200005_0000001_1 (protein)
chain: SSSSDEEAEEEVEKARELFEEGNLEEARKVLAKAADLVYEAGDHELFAILNELLFKIIQRSSSSS
B5: il2ra_site1_2b5i_normal_mot_HHH_b1_06833_000000207_0001_1_19_H_._9b4a7537886aea0851cc58e6c1afe4dd_0001_1_0001_0000200018_0000001_0_af2pred_dldesign_0_af2pred (protein)
chain: DAEKVTALLREIGVPEEEIERVLELYEEYQAHPEDSEVLRRLVDLLYRLAKSPEVLKELNKLLSK
B6: il2ra_site2_2erj_sap_27_mot_HHH_b1_01129_af2_000000281_0001_18_33_H_._HHH_b1_00785_af2_0001_0000500007_0000001_0_0001 (protein)
chain: SSSDEEEEELEKLLEEVERLIKEGNPEEAAEVLNRATRLAMELHDAEVYERIIELYHLLDNSSSS
B7: il2ra_site1_1z92_sap_12_mot_b97f03aff7fbbdc090789c14133bd7a1_0001_1_000000018_0001_17_32_H_._86e43a77a489429e2f53cc35fed9f0aa_0001_1_0001_0000300026_0000001_0_0 … (protein)
chain: SSSSDRSEERVKMAIRDLKMRGDEEAVREVEEILEEAREKNDPRLFSEAARLAIEIQKEQSSSSS
B8: il2ra_site2_2erj_sap_27_mot_HHH_b1_07186_000000166_0001_43_57_H_._5dc92b74ccc7c8cc6eca4ada2eaf0777_0001_1_af2_0001_0000200013_0000001_0_0001 (protein)
chain: SSSSSDVEEEVRRLLEEAEELHKEGDLREVYRLAVEAMRLASENQDQELLELVAEVVKRLSSSSS
B9: il2ra_site1_3nfp_normal_mot_HHH_b2_02552_af2_000000235_0001_1_20_H_._HHH_b1_08742_af2_0001_0000200013_0000001_1_af2pred_0001_af2pred (protein)
chain: SSSSSEEAEELFEQAKREIEELLKNGNPNEAARVVDEAVRLLARLGNPELAERLLRFALKLSSSS
B10: il2ra_site1_3nfp_normal_mot_HHH_b1_05462_000000101_0001_1_15_H_._HHH_b2_03114_0001_0000100004_0000001_0_af2pred_0001_af2pred_1 (protein)
chain: SSSSSEAKELVEELLEQVKELLEKGDPEEARRLFEEAMKIAAKFNDEEALELVREFAQDESSSSS
B11: il2ra_site2_2erj_normal_mot_HHH_eva_0050_af2_000000198_0001_43_62_H_._HHH_b2_01308_0001_0000300017_0000001_0 (protein)
chain: SSSSSSREEEVRELLERVEEALERGDLELVYELLNEALHIAAEAGDQELQELVAEFLERFSSSSS
B12: il2ra_site2_2erj_sap_28_mot_HHH_b1_02841_000000060_0001_43_57_H_._HHH_b2_04121_0001_0000100007_0000001_0_0001_af2pred_0001_1_af2pred_swapped (protein)
chain: SSSSDEEEEEARELLEEAKKISDPREALLVLLEAVALAVRGGDDELLEELSRLAHEVLERSSSSS
B13: il2ra_site2_3nfp_sap_31_mot_HHH_b1_02065_af2_000000205_0001_1_18_H_._HHH_b2_06072_0001_0000800053_0000001_0_0001 (protein)
chain: SSSSDEVDRLIIRAYELLLNGNPEEARKLLEEALELARELGDEELEKHIEEALKALKMSISSSSS
B14: il2ra_site2_2erj_normal_mot_af86707857d369f3e1d85dcabc5f9321_0001_000000201_0001_14_29_H_._HHH_b2_07982_0001_0000100002_0000001_0 (protein)
chain: SSSSSDEEREEAEELIEEARQIPDPERAAAVAISAAHLAARANDEELLEEIRELFVRIYESSSSS
B15: il2ra_site1_1z92_normal_mot_HHH_b1_00561_af2_000000294_0001_1_19_H_._HHH_b2_04201_af2_0001_0000700058_0000001_0_af2pred_0001_af2pred_1 (protein)
chain: SSSSNKEEKLAKIIVRILIRLAGLDEEQKEELEELAEELLRRGVDEEELMRELTRLALELVSSSS
B16: il2ra_site2_3nfp_normal_mot_HHH_b1_05628_af2_000000064_0001_19_35_H_._HHH_b1_04724_af2_0001_0000200013_0000001_0_af2pred_0001_1_af2pred_swapped (protein)
chain: SSSSDEEEEVKELLREAKELLERGNPEEAEKVVRRAASIAAQLGDHELFAAASRLMEEIHNSSSS
B17: il2ra_site1_1z92_sap_17_mot_HHH_b1_05862_af2_000000270_0001_22_38_H_._HHH_b1_05895_0001_0000300010_0000001_0_0001_af2pred_0001_af2pred_1 (protein)
chain: DEEELIEKLEEAAKNRDVELLKELLEELLELLGTPAIEFMLRQFERKLRRDEEAAVKLVRRSVEL
B18: il2ra_site1_1z92_normal_mot_HHH_b1_06795_af2_000000041_0001_42_56_H_._2874ac36c98298a0dc4d99a960bb3065_0001_af2_0001_0000100013_0000001_0 (protein)
chain: DHRFLAEAVIRKIKRGDEESVEKLVERLSRAAGIPPEEVLKLLLELLRELGDPEAVEFIEELLRR
B19: il2ra_site2_2erj_normal_mot_HHH_b1_03833_000000078_0001_1_20_H_._HHH_b1_04418_0002_0000100001_0000001_0 (protein)
chain: SSSSDEEEEERVRELIEKLEELLERNDEERLHKLAWEVLRTLHELGDPRLARIIRAVAQFLSSSS
B20: il2ra_site2_2erj_normal_mot_HHH_b1_07067_af2_000000253_0001_18_33_H_._HEEHE_2110_af2_0001_0000200001_0000001_0_1_af2pred_0001_af2pred (protein)
chain: DAEELLRRYIEFVSEAADIKSFSIEEHNGKITVTVHGDEAEALTAALHIEFFAERAGIDLEVEVE
B21: il2ra_site2_2erj_normal_mot_HHH_b2_02727_000000149_0001_42_55_H_._HHH_b1_01540_0001_0000300008_0000001_1_af2pred_0001_1_af2pred_swapped (protein)
chain: SSSSDAERLAERAKRAAKIAEELGNPEEARLLLELVAEELEELGNPELAEELRELLQELKSSSSS
B22: il2ra_site2_2erj_normal_mot_15580975d4dd9e5733d814788d639b64_0001_000000240_0001_17_31_H_._HHH_b1_04687_af2_0001_0000700006_0000001_0 (protein)
chain: SSSSDEDEERIKELLEEAEELLKRGNPAQAQRVLAEAAELVHELGNEELAELINRLMQSLMSSSS
B23: il2ra_site2_2erj_sap_32_mot_HHH_b2_01204_af2_000000051_0001_19_34_H_._HHH_b1_05381_0001_0000300037_0000001_0_0001_af2pred_0001_1_af2pred_swapped (protein)
chain: SSSSDEEELEQLVERLAKELGASEEAKELAELSAKNLKEAGHSEEEIELFLRLLLELDTRRSSSS
B24: il2ra_site2_3nfp_normal_mot_HHH_b1_03557_000000106_0001_41_55_H_._HHH_b1_06663_0001_0000200010_0000001_0 (protein)
chain: SSSSSDEEIRELLEEIEEAIKRGDEERVRELLREVAQLIWEAGDHELFAKLAELLFALQRSSSSS

The other results are listed elsewhere or left out.

This experiment addresses il2ra, P01589. The experiment is described as follows: yeast display titration.
Regarding B1, the “apparent Kd” value was “inactive: no binding seen”. To B2 belongs “inactive: no binding seen”; to B3, “inactive: no binding seen”. To B4 belongs “inactive: no binding seen”. To B5 belongs “inactive: no binding seen”; to B6, “inactive: no binding seen”.

B7: the “apparent Kd” value is “inactive: no binding seen”. For the molecule B8, the “apparent Kd” value was “inactive: no binding seen”. To B9 belongs “inactive: no binding seen”; to B10, “inactive: no binding seen”. B11: the “apparent Kd” value is “inactive: no binding seen”. To B12 belongs “inactive: no binding seen”; to B13, “inactive: no binding seen”. Turning to B14, the “apparent Kd” value was “inactive: no binding seen”. To B15 belongs “inactive: no binding seen”. To B16 belongs “inactive: no binding seen”. To B17 belongs “inactive: no binding seen”. With B18, the “apparent Kd” value was “inactive: no binding seen”. To B19 belongs “inactive: no binding seen”; to B20, “inactive: no binding seen”; to B21, “inactive: no binding seen”. To B22 belongs “inactive: no binding seen”; to B23, “inactive: no binding seen”. To B24 belongs “inactive: no binding seen”.
